From paper doi:10.1101/2022.04.05.487156
Read-outs that look alike come from different tables or passages of the source. These are yes or no findings as the source states them, for the method shown. Binding seen in cells or lysates may run through a third protein. These calls come from enrichment with a bait or labelling near it, and not all partners need be listed. Where a sequence is shown, tags or fusion partners need not be part of it.

The chains behind the UniProt entries cited, without tags or fusion partners.
UniProt Q9H3P7: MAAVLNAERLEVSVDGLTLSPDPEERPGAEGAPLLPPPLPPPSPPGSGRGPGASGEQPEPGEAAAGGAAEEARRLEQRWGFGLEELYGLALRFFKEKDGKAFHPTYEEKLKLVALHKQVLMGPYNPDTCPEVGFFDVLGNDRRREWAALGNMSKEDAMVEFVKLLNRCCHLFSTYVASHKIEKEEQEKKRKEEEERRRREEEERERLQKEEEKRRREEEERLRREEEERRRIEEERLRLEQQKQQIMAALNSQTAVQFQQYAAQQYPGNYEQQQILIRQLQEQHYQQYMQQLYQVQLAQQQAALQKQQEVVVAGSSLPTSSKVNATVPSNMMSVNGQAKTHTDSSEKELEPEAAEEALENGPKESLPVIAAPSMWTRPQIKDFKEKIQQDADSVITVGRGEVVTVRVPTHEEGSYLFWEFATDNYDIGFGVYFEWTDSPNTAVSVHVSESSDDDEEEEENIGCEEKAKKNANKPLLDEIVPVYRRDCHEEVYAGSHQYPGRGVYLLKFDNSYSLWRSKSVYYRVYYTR

Tests used:
[1] = biological target: T1, CARP2 (Tap-tag system) (human) (UniProt Q8WZ73); experiment: affinity purification with mass spectrometry
T1 sequence: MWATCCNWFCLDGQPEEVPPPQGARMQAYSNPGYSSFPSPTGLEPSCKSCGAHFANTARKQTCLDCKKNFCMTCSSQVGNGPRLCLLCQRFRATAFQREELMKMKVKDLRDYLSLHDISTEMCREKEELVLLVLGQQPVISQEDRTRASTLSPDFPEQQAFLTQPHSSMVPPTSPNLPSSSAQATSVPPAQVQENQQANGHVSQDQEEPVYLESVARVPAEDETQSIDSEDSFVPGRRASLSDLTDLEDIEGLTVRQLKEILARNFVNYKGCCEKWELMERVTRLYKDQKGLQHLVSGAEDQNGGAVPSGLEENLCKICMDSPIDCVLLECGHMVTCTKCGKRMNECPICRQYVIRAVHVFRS

[2] = biological target: T1, CARP2 (Tap-tag system) (human); experiment: affinity purification with mass spectrometry; remark: listed apart in the source

| Molecule | binding [1] | binding [2] |
| --- | --- | --- |
| ACBD3 (from UniProt Q9H3P7 1-528) | binds | – |
| Golgin45 (endogenous) (protein, UniProt Q9H2G9 1-400) MTTKNLETKVTVTSSPIRGAGDGMETEEPPKSVEVTSGVQSRKHHSLQSPWKKAVPSESPGVLQLGKMLTEKAMEVKAVRILVPKAAITHDIPNKNTKVKSLGHHKGEFLGQSEGVIEPNKELSEVKNVLEKLKNSERRLLQDKEGLSNQLRVQTEVNRELKKLLVASVGDDLQYHFERLAREKNQLILENEALGRNTAQLSEQLERMSIQCDVWRSKFLASRVMADELTNSRAALQRQNRDAHGAIQDLLSEREQFRQEMIATQKLLEELLVSLQWGREQTYSPSVQPHSTAELALTNHKLAKAVNSHLLGNVGINNQKKIPSTVEFCSTPAEKMAETVLRILDPVTCKESSPDNPFFESSPTTLLATKKNIGRFHPYTRYENITFNCCNHCRGELIAL | – | binds |
